Source: patent US20240043844A1
These are yes or no findings as the source states them, for the method shown. Some results given as binding are weak or reduced against the parent protein; the word gives no strength.

Tests used:
human CD71 (human) [1] = target: human CD71 (human) (UniProt P02786); assay: membrane proteome array, flow cytometry on QT6 cells expressing human membrane proteins
human CD71 (human) [2] = target: human CD71 (human) (UniProt P02786); assay: target binding assay using over 6,000 receptors in the proteome array (FIG. 3)

binding (human CD71 (human) [2]): binds
B1: polypeptide comprising the sequence of SEQ ID NO: 509 (human CD71-binding FN3 domain) (designed binder)
chain: MLPAPKNLVVSRVTEDSARLSWTAPDAAFDSFYIAYAEPRPDGEAILLQVPGSCRSYDLTGLKPGTEYSVLIHGVKGGLLSSPLTAIFTT
binding (human CD71 (human) [1]): binds
